Results are given in words; binding and its absence hold for the method and conditions named. In cells and extracts the contact can be indirect. Binding can be weak; no strength is given.
Target: T1, DJ-1 (rat (endogenous in rat testes)) (UniProt O88767)
T1 sequence: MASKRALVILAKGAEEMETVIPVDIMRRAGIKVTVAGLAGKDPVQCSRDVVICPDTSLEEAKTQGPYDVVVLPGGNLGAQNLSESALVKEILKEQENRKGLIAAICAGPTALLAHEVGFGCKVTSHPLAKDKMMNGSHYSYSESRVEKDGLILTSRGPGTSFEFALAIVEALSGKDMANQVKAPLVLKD
Assay: co-IP; rat testes homogenate (about 500 ug protein in 1 mL), precleared with Protein A/G PLUS-Agarose and normal goat IgG; goat anti-DJ-1 antibody 4 h at 4°C, then Protein A/G PLUS-Agarose overnight at 4°C; normal goat IgG as negative control; blot with anti-NDUFS3 and anti-DJ-1; testes of control rats and of ornidazole (ORN)-treated rats (400 mg/kg daily, 14 days)

binding: binds
Substance: nicotinamide adenine dinucleotide dehydrogenase (ubiquinone) Fe-S protein 3 (NDUFS3) (rat (endogenous in rat testes))

Reference: paper PMC5903298
